The list shows a part of the results.
Compound: Cc1cc(ccc1-c1ccccc1)C(=O)N1CCCN(CC1)C(=O)CCl [compound 10]
Assay: probe-labelled cysteine peptide fold change vs DMSO (competition) (log2 fold change); higher = less target engagement (more negative = stronger competition)
Settings: THP-1, incubation time: 4 h
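Further: competitive profiling in live THP-1 cells: cysteine peptides tagged with an iodoacetamide desthiobiotin (IA-DTB) probe, intensity after compound treatment relative to DMSO-treated cells.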

Protein sequences, listed by entry. Tags and fused reporters are not part of them. Lines headed by an entry give the natural chain unless they say otherwise; changes in a name come on top.
UniProt Q92546: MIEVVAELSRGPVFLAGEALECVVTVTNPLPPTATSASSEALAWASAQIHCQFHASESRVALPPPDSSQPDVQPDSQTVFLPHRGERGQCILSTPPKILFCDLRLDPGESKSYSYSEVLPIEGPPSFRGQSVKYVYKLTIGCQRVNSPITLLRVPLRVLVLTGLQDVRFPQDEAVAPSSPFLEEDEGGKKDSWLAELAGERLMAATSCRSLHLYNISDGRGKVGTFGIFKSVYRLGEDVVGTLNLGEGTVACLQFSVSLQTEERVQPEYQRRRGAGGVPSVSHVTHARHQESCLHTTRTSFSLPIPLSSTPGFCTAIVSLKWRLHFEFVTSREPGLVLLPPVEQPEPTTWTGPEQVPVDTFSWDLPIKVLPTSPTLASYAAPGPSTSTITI
UniProt Q6ZS17: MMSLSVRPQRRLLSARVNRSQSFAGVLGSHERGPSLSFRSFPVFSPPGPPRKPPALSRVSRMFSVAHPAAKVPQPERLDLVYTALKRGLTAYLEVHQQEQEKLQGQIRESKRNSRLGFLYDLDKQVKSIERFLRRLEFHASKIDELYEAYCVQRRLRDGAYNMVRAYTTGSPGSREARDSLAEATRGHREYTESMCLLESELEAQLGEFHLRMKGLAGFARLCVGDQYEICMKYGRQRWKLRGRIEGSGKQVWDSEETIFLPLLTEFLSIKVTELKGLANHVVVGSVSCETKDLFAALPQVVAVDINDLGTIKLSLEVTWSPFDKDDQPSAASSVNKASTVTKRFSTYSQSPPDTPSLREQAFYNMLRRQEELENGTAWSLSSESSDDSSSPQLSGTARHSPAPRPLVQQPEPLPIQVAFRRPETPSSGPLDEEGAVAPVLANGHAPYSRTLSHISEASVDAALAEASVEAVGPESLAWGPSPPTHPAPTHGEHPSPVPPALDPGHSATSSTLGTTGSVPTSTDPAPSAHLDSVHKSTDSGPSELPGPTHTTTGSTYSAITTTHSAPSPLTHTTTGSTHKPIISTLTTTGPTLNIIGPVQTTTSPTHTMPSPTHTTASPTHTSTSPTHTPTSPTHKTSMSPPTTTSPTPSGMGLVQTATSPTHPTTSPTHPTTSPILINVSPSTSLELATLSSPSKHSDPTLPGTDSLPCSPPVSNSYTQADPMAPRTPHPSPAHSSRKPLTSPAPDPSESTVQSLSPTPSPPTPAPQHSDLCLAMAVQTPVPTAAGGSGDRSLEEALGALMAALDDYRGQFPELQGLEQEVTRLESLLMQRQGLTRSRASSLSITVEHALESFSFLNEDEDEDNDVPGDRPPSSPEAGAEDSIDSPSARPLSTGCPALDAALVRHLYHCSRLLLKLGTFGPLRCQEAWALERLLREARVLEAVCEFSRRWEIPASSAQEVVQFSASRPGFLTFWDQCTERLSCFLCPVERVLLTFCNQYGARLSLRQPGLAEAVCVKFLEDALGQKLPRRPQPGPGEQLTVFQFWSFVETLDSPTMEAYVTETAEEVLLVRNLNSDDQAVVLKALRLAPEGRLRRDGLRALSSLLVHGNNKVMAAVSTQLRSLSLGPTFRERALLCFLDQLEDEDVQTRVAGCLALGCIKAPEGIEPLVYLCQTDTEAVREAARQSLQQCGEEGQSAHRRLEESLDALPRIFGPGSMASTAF
UniProt Q9H871: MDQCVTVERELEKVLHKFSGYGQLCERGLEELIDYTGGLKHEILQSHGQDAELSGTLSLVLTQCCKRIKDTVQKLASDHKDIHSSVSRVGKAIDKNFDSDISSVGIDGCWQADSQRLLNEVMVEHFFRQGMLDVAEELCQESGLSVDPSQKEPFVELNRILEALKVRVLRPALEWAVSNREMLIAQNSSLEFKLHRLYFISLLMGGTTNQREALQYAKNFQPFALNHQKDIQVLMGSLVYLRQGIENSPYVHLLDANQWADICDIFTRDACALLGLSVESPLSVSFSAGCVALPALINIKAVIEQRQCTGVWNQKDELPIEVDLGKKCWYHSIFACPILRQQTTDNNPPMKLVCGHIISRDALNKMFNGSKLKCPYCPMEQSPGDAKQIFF
UniProt Q969G6: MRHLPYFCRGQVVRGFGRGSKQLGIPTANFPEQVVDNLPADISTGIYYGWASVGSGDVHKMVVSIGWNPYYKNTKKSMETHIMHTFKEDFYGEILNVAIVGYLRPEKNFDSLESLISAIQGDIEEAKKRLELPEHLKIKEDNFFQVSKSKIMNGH
UniProt P40938, whole entry, looked up: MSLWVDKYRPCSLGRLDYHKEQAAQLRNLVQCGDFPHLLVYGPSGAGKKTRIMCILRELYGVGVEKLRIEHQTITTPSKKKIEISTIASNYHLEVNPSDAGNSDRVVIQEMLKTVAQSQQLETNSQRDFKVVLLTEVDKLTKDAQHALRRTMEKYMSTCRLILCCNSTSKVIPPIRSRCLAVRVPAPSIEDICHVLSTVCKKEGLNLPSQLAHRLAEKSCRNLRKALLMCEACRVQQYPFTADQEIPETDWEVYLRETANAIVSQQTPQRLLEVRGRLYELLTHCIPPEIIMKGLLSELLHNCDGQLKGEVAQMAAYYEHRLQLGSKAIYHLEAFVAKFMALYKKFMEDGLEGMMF
UniProt Q9H9A7: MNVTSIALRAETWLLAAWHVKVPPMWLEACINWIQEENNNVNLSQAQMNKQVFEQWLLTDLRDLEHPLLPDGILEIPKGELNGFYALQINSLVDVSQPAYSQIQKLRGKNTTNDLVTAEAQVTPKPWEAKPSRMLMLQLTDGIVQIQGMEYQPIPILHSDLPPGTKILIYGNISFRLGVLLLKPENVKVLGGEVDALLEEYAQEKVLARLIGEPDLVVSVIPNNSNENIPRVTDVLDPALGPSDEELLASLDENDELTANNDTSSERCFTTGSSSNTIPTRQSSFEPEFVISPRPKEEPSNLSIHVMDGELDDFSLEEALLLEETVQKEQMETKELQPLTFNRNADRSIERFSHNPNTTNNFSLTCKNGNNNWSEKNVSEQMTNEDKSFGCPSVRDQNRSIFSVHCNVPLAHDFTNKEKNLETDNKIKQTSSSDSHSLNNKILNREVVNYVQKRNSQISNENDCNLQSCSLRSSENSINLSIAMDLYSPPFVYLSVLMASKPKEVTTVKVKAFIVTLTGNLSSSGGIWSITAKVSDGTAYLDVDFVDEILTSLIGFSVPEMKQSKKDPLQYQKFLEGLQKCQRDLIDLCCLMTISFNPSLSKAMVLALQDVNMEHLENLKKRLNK
UniProt P46063: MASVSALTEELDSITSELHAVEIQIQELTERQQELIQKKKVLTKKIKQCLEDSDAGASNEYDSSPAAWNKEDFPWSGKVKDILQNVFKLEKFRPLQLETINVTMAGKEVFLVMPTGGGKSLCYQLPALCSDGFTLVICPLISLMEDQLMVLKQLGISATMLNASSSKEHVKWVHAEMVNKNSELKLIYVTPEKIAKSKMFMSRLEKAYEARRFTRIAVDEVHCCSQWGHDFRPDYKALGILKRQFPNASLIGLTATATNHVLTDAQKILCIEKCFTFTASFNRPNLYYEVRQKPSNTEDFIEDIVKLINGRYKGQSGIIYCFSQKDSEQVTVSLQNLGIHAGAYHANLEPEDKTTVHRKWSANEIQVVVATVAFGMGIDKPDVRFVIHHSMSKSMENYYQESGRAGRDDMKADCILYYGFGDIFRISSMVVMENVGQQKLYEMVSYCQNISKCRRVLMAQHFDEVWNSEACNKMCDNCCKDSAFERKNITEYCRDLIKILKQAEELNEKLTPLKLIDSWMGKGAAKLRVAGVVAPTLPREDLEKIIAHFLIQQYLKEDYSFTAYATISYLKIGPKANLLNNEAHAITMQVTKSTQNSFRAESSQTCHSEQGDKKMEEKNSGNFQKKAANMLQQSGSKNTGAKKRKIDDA
UniProt Q6R327, whole entry, looked up: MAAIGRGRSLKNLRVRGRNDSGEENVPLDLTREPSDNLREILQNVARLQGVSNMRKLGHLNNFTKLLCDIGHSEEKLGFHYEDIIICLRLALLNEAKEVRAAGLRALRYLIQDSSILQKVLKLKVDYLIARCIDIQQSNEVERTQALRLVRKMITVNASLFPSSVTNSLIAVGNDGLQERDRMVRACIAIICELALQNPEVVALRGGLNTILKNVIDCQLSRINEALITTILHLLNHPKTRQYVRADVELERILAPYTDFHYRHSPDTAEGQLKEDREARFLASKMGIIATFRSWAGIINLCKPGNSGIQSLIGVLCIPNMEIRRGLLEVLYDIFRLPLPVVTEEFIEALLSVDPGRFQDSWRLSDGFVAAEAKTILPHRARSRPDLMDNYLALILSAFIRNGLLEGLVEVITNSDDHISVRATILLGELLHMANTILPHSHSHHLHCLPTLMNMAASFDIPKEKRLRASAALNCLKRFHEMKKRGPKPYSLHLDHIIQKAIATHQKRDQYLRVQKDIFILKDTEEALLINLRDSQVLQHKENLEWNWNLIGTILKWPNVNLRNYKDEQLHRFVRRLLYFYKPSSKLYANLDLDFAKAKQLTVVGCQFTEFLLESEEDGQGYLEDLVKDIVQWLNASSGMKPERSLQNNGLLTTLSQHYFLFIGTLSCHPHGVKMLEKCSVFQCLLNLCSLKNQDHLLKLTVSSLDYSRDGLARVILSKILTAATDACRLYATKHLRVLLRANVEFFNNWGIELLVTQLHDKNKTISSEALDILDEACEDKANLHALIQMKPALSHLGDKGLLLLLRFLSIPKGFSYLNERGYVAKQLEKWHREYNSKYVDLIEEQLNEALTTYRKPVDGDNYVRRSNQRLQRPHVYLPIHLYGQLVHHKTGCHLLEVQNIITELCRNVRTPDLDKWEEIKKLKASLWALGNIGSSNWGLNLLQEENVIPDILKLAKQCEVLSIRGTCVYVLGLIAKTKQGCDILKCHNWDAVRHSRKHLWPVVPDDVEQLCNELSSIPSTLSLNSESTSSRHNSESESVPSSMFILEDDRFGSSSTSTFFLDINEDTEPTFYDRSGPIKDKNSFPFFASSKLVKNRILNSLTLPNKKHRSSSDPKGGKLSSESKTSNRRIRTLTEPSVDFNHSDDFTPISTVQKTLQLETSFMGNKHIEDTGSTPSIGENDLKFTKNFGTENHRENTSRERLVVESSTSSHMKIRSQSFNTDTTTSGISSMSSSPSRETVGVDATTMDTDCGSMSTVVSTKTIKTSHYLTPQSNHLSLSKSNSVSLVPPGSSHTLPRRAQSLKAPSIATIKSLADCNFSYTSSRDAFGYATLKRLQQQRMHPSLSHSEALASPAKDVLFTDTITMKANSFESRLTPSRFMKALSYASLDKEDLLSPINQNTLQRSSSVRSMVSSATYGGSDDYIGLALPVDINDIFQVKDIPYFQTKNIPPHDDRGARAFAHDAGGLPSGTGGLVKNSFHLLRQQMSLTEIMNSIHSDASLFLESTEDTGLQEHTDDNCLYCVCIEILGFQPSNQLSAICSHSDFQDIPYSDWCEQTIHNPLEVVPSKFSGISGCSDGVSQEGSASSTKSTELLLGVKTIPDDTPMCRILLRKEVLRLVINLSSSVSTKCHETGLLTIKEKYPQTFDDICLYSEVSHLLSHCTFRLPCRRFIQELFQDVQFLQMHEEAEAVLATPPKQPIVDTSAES
UniProt O00584, whole entry, looked up: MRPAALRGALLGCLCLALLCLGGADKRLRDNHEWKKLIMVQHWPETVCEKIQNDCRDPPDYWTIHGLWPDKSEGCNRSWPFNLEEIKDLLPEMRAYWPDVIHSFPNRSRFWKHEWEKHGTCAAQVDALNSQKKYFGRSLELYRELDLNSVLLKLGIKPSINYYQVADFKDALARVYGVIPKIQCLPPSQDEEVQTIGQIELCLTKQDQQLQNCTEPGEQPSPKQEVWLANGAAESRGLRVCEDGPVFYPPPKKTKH
UniProt Q6PCD5: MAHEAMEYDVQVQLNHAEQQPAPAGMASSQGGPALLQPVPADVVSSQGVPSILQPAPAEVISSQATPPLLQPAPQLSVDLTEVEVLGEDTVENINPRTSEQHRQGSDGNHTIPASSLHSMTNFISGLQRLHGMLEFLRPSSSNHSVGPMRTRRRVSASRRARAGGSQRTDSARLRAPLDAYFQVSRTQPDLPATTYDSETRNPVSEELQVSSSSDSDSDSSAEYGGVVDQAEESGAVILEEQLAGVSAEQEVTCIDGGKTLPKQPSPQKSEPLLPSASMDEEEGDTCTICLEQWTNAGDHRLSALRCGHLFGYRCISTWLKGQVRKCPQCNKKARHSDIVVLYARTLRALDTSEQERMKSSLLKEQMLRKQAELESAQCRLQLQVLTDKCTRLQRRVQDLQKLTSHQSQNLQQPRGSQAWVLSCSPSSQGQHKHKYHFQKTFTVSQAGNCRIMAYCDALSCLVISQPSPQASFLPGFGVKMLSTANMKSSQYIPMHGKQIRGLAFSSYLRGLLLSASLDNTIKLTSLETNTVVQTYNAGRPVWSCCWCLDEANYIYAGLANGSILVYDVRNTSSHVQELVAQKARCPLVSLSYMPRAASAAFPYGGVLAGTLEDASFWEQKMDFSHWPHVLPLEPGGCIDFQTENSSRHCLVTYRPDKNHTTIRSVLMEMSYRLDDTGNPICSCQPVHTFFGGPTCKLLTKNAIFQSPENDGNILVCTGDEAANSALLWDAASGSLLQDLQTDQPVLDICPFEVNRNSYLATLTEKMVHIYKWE

| Target | probe-labelled cysteine peptide fold change (10 µM) | probe-labelled cysteine peptide fold change (50 µM) |
| --- | --- | --- |
| REL_Q04864-2_304_LCQDHVNFPERPRPGLLGSIGEGR (UniProt Q04864) | -0.131 | -0.283 |
| REEP5_Q00765_18_NCMTDLLAK (UniProt Q00765) | -0.872 | -1.97 |
| RNASEH2C_Q8TDP1_34_DAVPATLHLLPCEVAVDGPAPVGR (UniProt Q8TDP1) | -0.0237 | -0.113 |
| RGP1_Q92546_314_TSFSLPIPLSSTPGFCTAIVSLK (UniProt Q92546) | 0.102 | 0.0133 |
| RFC2_P35250_88_TTSILCLAR (UniProt P35250) | -0.0505 | -0.0625 |
| REPIN1_Q9BWE0_520_IHTGERPYACPDCDR (UniProt Q9BWE0) | 0.0967 | 0.105 |
| RIC1_Q4ADV7_127_EEQCAPALNLEMR (UniProt Q4ADV7) | -0.167 | 0.064 |
| RIPOR1_Q6ZS17_925_CQEAWALER (UniProt Q6ZS17) | -0.0104 | -0.0775 |
| RIPK1_Q13546_325_MQSLQLDCVAVPSSR (UniProt Q13546) | -0.165 | -0.687 |
| RIF1_Q5UIP0_1155_SSLSNNECGSLDK (UniProt Q5UIP0) | -0.539 | -0.295 |
| RLF_Q13129_773_CELNGCNIVFSDLGQLYHHEAQHFR (UniProt Q13129) | 0.00468 | -0.0401 |
| RLF_Q13129_1055_RPCTEDTMLELLLR (UniProt Q13129) | -0.148 | -0.28 |
| RMND5A_Q9H871_354_LVCGHIISR (UniProt Q9H871) | -0.0314 | -0.213 |
| RLF_Q13129_1383_HCSDSHNLDHIEEPK (UniProt Q13129) | 0.118 | -0.251 |
| RHOT2_Q8IXI1_543_ADLPEGVAVSGPSPAEFCR (UniProt Q8IXI1) | -0.0481 | -0.0922 |
| RFK_Q969G6_8_HLPYFCR (UniProt Q969G6) | -0.142 | -0.0297 |
| RFC3_P40938_233_ALLMCEACR (UniProt P40938) | 0.178 | -0.202 |
| RNF14_Q9UBS8_270_CPSVATPGQVK (UniProt Q9UBS8) | -0.197 | -0.397 |
| RFC1_P35251_916_AADSICDGDLVDSQIR (UniProt P35251) | -0.128 | 0.204 |
| RIC8A_Q9NPQ8_79_DRNCLDPFTSR (UniProt Q9NPQ8) | -0.104 | 0.057 |
| RNF121_Q9H920_251_LSCNHVFHEFCIR (UniProt Q9H920) | 0.00159 | -0.0297 |
| RMI1_Q9H9A7_366_FSHNPNTTNNFSLTCK (UniProt Q9H9A7) | -0.165 | -0.45 |
| RECQL_P46063_321_YKGQSGIIYCFSQK (UniProt P46063) | -0.137 | -0.479 |

Pulled one by one from above:

| Target | probe-labelled cysteine peptide fold change (10 µM) | probe-labelled cysteine peptide fold change (50 µM) |
| --- | --- | --- |
| RFK_Q969G6_8_HLPYFCR (UniProt Q969G6) | -0.142 | -0.0297 |
| RFC3_P40938_233_ALLMCEACR (UniProt P40938) | 0.178 | -0.202 |

Remaining list, next part

| Target | probe-labelled cysteine peptide fold change (10 µM) | probe-labelled cysteine peptide fold change (50 µM) |
| --- | --- | --- |
| RMC1_Q96DM3_635_GSPNFTPGEHCEEHVAFFK (UniProt Q96DM3) | 0.0488 | -0.0985 |
| RIOK3_O14730_171_HDEVVCGR (UniProt O14730) | -0.336 | -0.324 |
| RIPOR1_Q6ZS17_196_GHREYTESMCLLESELEAQLGEFHLR (UniProt Q6ZS17) | 0.603 | 0.814 |
| RICTOR_Q6R327_906_TGCHLLEVQNIITELCR (UniProt Q6R327) | 0.0688 | -0.0251 |
| REXO4_Q9GZR2_248_ALALDCEMVGVGPK (UniProt Q9GZR2) | 0.102 | 0.186 |
| RECQL_P46063_471_VLMAQHFDEVWNSEACNK (UniProt P46063) | 0.0916 | 0.0746 |
| REST_Q13127_945_HQTDSIVCEMK (UniProt Q13127) | -0.119 | -0.186 |
| RNF146_Q9NTX7_185_LDCDANTVNLAR (UniProt Q9NTX7) | -0.0262 | -0.0309 |
| RNASET2_O00584_55_IQNDCRDPPDYWTIHGLWPDK (UniProt O00584) | -0.0979 | -0.209 |
| RNF13_O43567_281_KTCPVCK (UniProt O43567) | -0.0976 | -0.326 |
| RICTOR_Q6R327_1651_YPQTFDDICLYSEVSHLLSHCTFR (UniProt Q6R327) | -0.357 | -0.603 |
| RNF139_Q8WU17_585_WLYIQDTCPMCHQK (UniProt Q8WU17) | -0.0976 | -0.33 |
| RIOX1_Q9H6W3_409_GFIHQAECQDGVHSLHLTLSTYQR (UniProt Q9H6W3) | 0.062 | 0.191 |
| RECQL_P46063_414_ADCILYYGFGDIFR (UniProt P46063) | 0.295 | 0.455 |
| RGP1_Q92546_90_GQCILSTPPK (UniProt Q92546) | -0.094 | -0.305 |
| RFC3_P40938_32_NLVQCGDFPHLLVYGPSGAGKK (UniProt P40938) | -0.11 | -0.186 |
| RNF114_Q9Y508_56_PVQVPCGHVFCSACLQECLKPK (UniProt Q9Y508) | 0.184 | 0.0867 |
| RICTOR_Q6R327_893+906_TGCHLLEVQNIITELCR (UniProt Q6R327) | -0.265 | -0.217 |
| RELCH_Q9P260_548_REELIPLILCTACLHPEPK (UniProt Q9P260) | 0.223 | 0.121 |
| RNASEH2A_O75792_29_KEPCVLGVDEAGR (UniProt O75792) | -0.0277 | 0.0399 |
| RMDN3_Q96TC7_288_AYSDMCELTEEVSEKK (UniProt Q96TC7) | 0.0747 | -0.264 |
| RLF_Q13129_400_TIACLLPEDLEVRR (UniProt Q13129) | -0.0742 | -0.58 |
| RFC4_P35249_180_FCLICNYVSR (UniProt P35249) | -0.0567 | -0.0404 |

| Target | probe-labelled cysteine peptide fold change (10 µM) | probe-labelled cysteine peptide fold change (50 µM) |
| --- | --- | --- |
| RLF_Q13129_355_TQQHLFCLIR (UniProt Q13129) | -0.081 | -0.185 |
| RFWD3_Q6PCD5_315_CISTWLK (UniProt Q6PCD5) | -0.162 | -0.47 |
| RFC3_P40938_165_LILCCNSTSK (UniProt P40938) | -0.142 | 0.0949 |
| RFC3_P40938_285_LYELLTHCIPPEIIMK (UniProt P40938) | 0.143 | -0.0545 |
| RNASET2_O00584_121_HGTCAAQVDALNSQK (UniProt O00584) | 0.114 | 0.00208 |
| RFC3_P40938_32_NLVQCGDFPHLLVYGPSGAGK (UniProt P40938) | -0.122 | 0.124 |
| RLF_Q13129_453_CELLLALK (UniProt Q13129) | -0.0396 | -0.333 |
| RMND5A_Q9H871_308_QCTGVWNQK (UniProt Q9H871) | -0.0408 | -0.62 |
| RNF146_Q9NTX7-2_4_AGCGEIDHSINMLPTNR (UniProt Q9NTX7) | 0.318 | -0.0532 |
| RGS14_O43566-5_207_ALVLDQDCTVLADQEVR (UniProt O43566) | -0.12 | 0.47 |
| RNF146_Q9NTX7_57_HVFCYLCVK (UniProt Q9NTX7) | -0.00468 | -0.239 |
| RELA_Q04206_160_LCFQVTVR (UniProt Q04206) | 0.0978 | -0.176 |
| RMI1_Q9H9A7_268_CFTTGSSSNTIPTR (UniProt Q9H9A7) | -0.352 | -0.438 |
| RGMB_Q6NW40_226_ITIIFKAHHECTDQK (UniProt Q6NW40) | -0.0752 | -1.11 |
| RNASEH2A_O75792_29_EPCVLGVDEAGR (UniProt O75792) | -0.0446 | 0.0343 |
| RGS19_P49795_123_TEYSEENMLFWLACEELK (UniProt P49795) | 0.335 | 0.179 |
| RECQL5_O94762_188_LGHAPCVALTATATPQVQEDVFAALHLK (UniProt O94762) | -0.0189 | -0.228 |
| REPS1_Q96D71_56_AAQLPNDVVLQIMELCGATR (UniProt Q96D71) | 0.018 | -0.081 |
| RIPK3_Q9Y572_365_KCPSLTK (UniProt Q9Y572) | -0.1 | -0.864 |
| RFWD3_Q6PCD5_638_MDFSHWPHVLPLEPGGCIDFQTENSSR (UniProt Q6PCD5) | -0.0759 | 0.222 |
| RLF_Q13129_400_TIACLLPEDLEVR (UniProt Q13129) | 0.247 | -0.452 |
| RHOT2_Q8IXI1_504_SFAHCASVYK (UniProt Q8IXI1) | -0.0106 | -0.0219 |

— the supplement of paper PMC12067093, “Discovery and optimisation of a covalent ligand for TRIM25 and its application to targeted protein ubiquitination” (Chemical Science, 2025)
